# This is one part of the list. The main result of the screen is listed elsewhere. These columns were measured beside it and carry no call. Compounds called inactive in the main read-out are mostly missing here. Potencies come from curve fits of mixed quality, noted in brackets.
# Assay: qHTS Assay for Lipid Storage Modulators in Drosophila S3 Cells;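 as to cell number change: cells counted by Cell Tracker Red CMTPX staining in the red channel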
# Conditions: BODIPY lipid droplet fluorescence, 18-24 h; for cell number change: measured here: cell count max response, cells fed with added oleic acid
# Outline: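 Drosophila S3 cells loaded with oleic acid (400 uM, as added) and compounds at several concentrations; lipid droplets imaged by 488-nm laser-scanning cytometry, 500–530 nm intensity and object ratio to cell channel. Percent activity normalized to 20 uM Triacsin C.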
# [1] = measured here: lipid fluorescence (Fed channel) AC50, cells fed with added oleic acid
# [2] = measured here: cell number channel AC50, cells fed with added oleic acid
SMILES,cell number change,AC50 [1],AC50 [2]
Cc1noc(C)c1COc1cccc(C(=O)NCc2ccccc2Cl)c1,4.08%,,
CN1CC(c2ccc(C#N)cc2)C2(COc3ccccc3C2=O)C12C(=O)Nc1ccccc12 (configuration not stated),10.7%,"29.1 µM [rising, single point]",
Cc1nc2ccc(NS(=O)(=O)c3ccc(F)c(C)c3)cc2[nH]1,-57.9%,"2.31 µM [falling, full curve]","16.4 µM [falling, partial curve]"
COC(=O)C1=NN(c2ccccc2OC)C2C(=O)N(c3ccccc3OC)C(=O)C12 (configuration not stated),-24%,"0.0058 µM [falling, full curve, poor fit]","0.731 µM [falling, full curve, poor fit]"
CC1(C)CC(=O)C(C=Nc2cccc(/N=C/C3=C(O)CC(C)(C)CC3=O)n2)=C(O)C1,11.8%,"0.00651 µM [falling, full curve, poor fit]",
COc1ccc(N(CC(=O)NCc2cccs2)S(=O)(=O)c2ccc(F)cc2)cc1,-6.33%,"1.46 µM [falling, partial curve]",
Cc1ccsc1C(=O)N1CCc2ccccc2C1,4.91%,,
COC(=O)c1ccc(COC(=O)CCc2nc(-c3ccccc3)c(-c3ccccc3)o2)cc1,10.4%,,
COc1ccc(COC(=O)C2=C(C)NC(=O)NC2c2ccc(OC)cc2)cc1 (configuration not stated),-1.09%,"0.731 µM [rising, single point]",
CN(C(=O)c1ccc(NC(=O)Cc2cccc(NC(=O)C3CCN(C(=O)c4ccccc4)CC3)c2)cc1)C1CCCC1,-20.2%,"0.58 µM [falling, single point]",
CC(=O)NCCOc1nc(N(C)C)nc(N(C)C)n1,,"3.26 µM [falling, single point]",
NC(=S)N/N=C/c1ccccc1OCc1cccc(Cl)c1,-7.71%,,
CN1CCOc2ccc(S(=O)(=O)N3CCN(S(=O)(=O)c4c(F)cccc4F)CC3)cc21,30.5%,"5.17 µM [rising, partial curve]","6.51 µM [rising, partial curve]"
C=CCN(CC=C)C(=O)c1cc(Cl)ccc1[N+](=O)[O-],7.9%,"29.1 µM [rising, single point]",
CCN(CC)c1ccc2cc(-c3nnc(-c4ccncc4)o3)c(=O)oc2c1,129%,"0.58 µM [rising, single point]","18.4 µM [rising, single point]"
CCN(CC)CCNC(=O)C1CCN(S(=O)(=O)c2c(C)noc2/C=C/c2ccccc2F)CC1,19.3%,"1.46 µM [rising, full curve]",
CCn1c(=O)c2sccc2n(Cc2ccccc2)c1=O,-5.49%,"0.651 µM [falling, full curve]",
O=C(O)c1cccc(Cn2cc(Cl)cn2)c1,-9.75%,,
COC(=O)CN1C(=O)[C@H]2[C@@H](C3CC3)N3C(=O)CN(CCO)C(=O)[C@@]3(Cc3ccccc3)[C@H]2C1=O,-8.41%,,

SMILES,cell number change,AC50 [1],AC50 [2]
O=C(COc1c(CO)cc(Br)cc1CO)NC1CCCc2ccccc21 (configuration not stated),19.3%,"0.291 µM [rising, full curve]",
N#Cc1cnc(Nc2ccc(F)cc2)nc1N,-22.6%,"0.291 µM [falling, full curve, poor fit]","0.164 µM [falling, full curve, poor fit]"
O=C(Cc1cccs1)Nc1cccc(C(=O)Nc2ccc(C(=O)O)cc2)c1,17%,"0.259 µM [rising, partial curve, poor fit]",
Cc1ccc(C)c(NC(=O)c2cc(-c3ccccc3O)n[nH]2)c1,80.2%,,
CC1(C)O[C@@H]2CC3C4C[C@H](F)C5=CC(=O)C=CC5(C)C4C(O)CC3(C)[C@]2(C(=O)CO)O1 (some centres not stated),42%,"23.1 µM [rising, partial curve, poor fit]","25.9 µM [rising, partial curve]"
Cc1ccc2[nH]c(O)c(N=NC(=O)c3ccc(NS(=O)(=O)c4cccs4)cc3)c2c1,-15.2%,"25.9 µM [falling, partial curve]",
CC(C(=O)NCc1cccs1)N1CCN(S(=O)(=O)c2ccc3c(c2)OCCCO3)CC1 (configuration not stated),,"5.17 µM [falling, full curve, poor fit]","6.51 µM [falling, single point]"
O=c1oc2ccccc2n1CCn1c2ccccc2c2nc3ccccc3nc21,,"0.259 µM [rising, partial curve, poor fit]","0.411 µM [rising, full curve]"
CC(C)(C)OC(=O)NNC(=S)NCc1ccc(Cl)cc1,3.22%,"9.2 µM [rising, partial curve, poor fit]",
Cc1ccc(SCc2cc(=O)[nH]c(N3CCOCC3)n2)cc1,3.07%,"4.61 µM [falling, single point]","0.731 µM [falling, full curve]"
O=C(Nc1ncccc1Cl)C1COc2ccccc2O1 (configuration not stated),20.4%,,
COc1cccc(NC(=O)C2C3C=CC4(O3)C2C(=O)N(C2CC2)C4C(=O)NC2CCCCC2C)c1 (configuration not stated),20.9%,"29.1 µM [falling, single point]",
Cc1nnc(N2C(=O)C(O)=C(C(=O)c3ccco3)C2c2ccc(F)cc2)s1 (configuration not stated),-29.5%,"2.59 µM [falling, full curve]",
O=C(Cc1ccccc1F)Nc1ccc(SC(F)F)cc1,-2.25%,,
Cc1cccc(N2CCN(C(=O)Cc3cn(C)c4ccccc34)CC2)c1C,,,"0.82 µM [rising, partial curve, poor fit]"
COc1ccc2[nH]c3nc(SCC(=O)NC4CC4)nnc3c2c1,23.1%,"0.58 µM [falling, single point]",
O=C(O)c1ccc2cccc(Cl)c2c1O,4.83%,"0.00461 µM [falling, full curve, poor fit]",
c1nnc(NC2=NCCC2)s1,-71.7%,,"14.6 µM [falling, single point]"
CCC(=O)N1CCc2cc(S(=O)(=O)CCC(=O)N3CCN(c4ccc(F)cc4)CC3)ccc21,14.3%,"0.291 µM [rising, full curve]",

# 2 compounds from above, reduced to cell number change.
SMILES,cell number change
CC1(C)CC(=O)C(C=Nc2cccc(/N=C/C3=C(O)CC(C)(C)CC3=O)n2)=C(O)C1,11.8%
COc1ccc(N(CC(=O)NCc2cccs2)S(=O)(=O)c2ccc(F)cc2)cc1,-6.33%

# Arranged by number of heavy atoms (rising): part of the list above.
SMILES,cell number change,AC50 [1],AC50 [2]
N#Cc1cnc(Nc2ccc(F)cc2)nc1N,-22.6%,"0.291 µM [falling, full curve, poor fit]","0.164 µM [falling, full curve, poor fit]"
COC(=O)c1ccc(COC(=O)CCc2nc(-c3ccccc3)c(-c3ccccc3)o2)cc1,10.4%,,
CN(C(=O)c1ccc(NC(=O)Cc2cccc(NC(=O)C3CCN(C(=O)c4ccccc4)CC3)c2)cc1)C1CCCC1,-20.2%,"0.58 µM [falling, single point]",

# — PubChem BioAssay AID2685 (National Center for Advancing Translational Sciences (NCATS), 2010)
